Here are results for two substances from publication PMC4128677 (PLoS ONE, 2014).

This data set is described as follows: general procedure: Fmoc solid-phase peptide synthesis; Fmoc-Thr(But)-Wang resin; HBTU/HOBt/DIEA; HOBT/DIC for Ce6. Particulars: whole synthesis, scale ~0.05 mmol.

HELM strings list residues between dots; [ac] is acetyl, [am] amide, other brackets name non-standard units.

Take “Ce6-[Tyr3]-octreotate-K3-[Tyr3]-octreotate”: the isolated mass was determined as 7 mg and the isolated yield is recorded as around 4% yield.

On to “PEPTIDE1{[Ce6].K.K.K.[dF].C.Y.[dW].K.T.C.T}$PEPTIDE1,PEPTIDE1,6:R3-11:R3$$$V2.0”, for which the isolated mass worked out at 15 mg and the isolated yield is around 13% yield.
